The other results are listed elsewhere or left out. Further columns of the screen follow, without active or inactive calls. Compounds called inactive in the main read-out are mostly missing here. Potencies come from curve fits of mixed quality, noted in brackets.
Experiment: qHTS Assay to Find Inhibitors of Chronic Active B-Cell Receptor Signaling
Conditions: ABC-DLBCL IkBa-CBG/CBR reporter, luminescence ratio (green luciferase fused to IkBa over red control in TMD8 lymphoma cells), 4 h
Method in brief: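 TMD8 ABC-DLBCL cells carrying doxycycline-inducible green luciferase fused to IkappaBalpha plus unfused red luciferase were exposed to compounds (up to 46 uM) for 4 hrs at 37C. Activity came from the overlap-corrected green/red luminescence ratio.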

[1] = measured here: CBR red luminescence, cell number
[2] = measured here: IkBa-CBG green luminescence

SMILES	AC50 [1]	AC50 [2]
O=C1c2ccccc2C(=O)N1CCCCCc1nc(-c2ccccc2)no1	6.51 µM [rising, single point]	
COc1ccc(C/C(C)=N/NC(=O)c2ccc(Cl)cc2)cc1	17.8 µM [falling, partial curve, poor fit]	
Fc1ccccc1SCc1nnc(-c2ccccc2Br)o1	0.112 µM [rising, full curve, poor fit]	
CCCc1ccc2oc(C(=O)NCc3nnc(C)o3)c(C)c2c1	7.94 µM [rising, partial curve]	
C[C@@]12CCC3[C@@](CCC4[C@@]3(C)CCC[C@@]4(C)C(=O)NCc3ccccc3)(CC1=O)C2 (stereo partly drawn)	29.1 µM [falling, single point]	
COc1ccc(-c2nc(N)ncc2-c2ccc(Cl)cc2)c(O)c1	8.91 µM [falling, partial curve, poor fit]	
COC(=O)c1ccc(NC(=O)c2ccco2)cc1	20 µM [falling, single point]	
Cc1ccsc1-c1cc(C(=O)O)c2c(ccc3ccccc32)n1	17.8 µM [falling, partial curve, poor fit]	
c1ccc(-c2nc(Sc3ncnc4c3cnn4-c3ccccc3)n[nH]2)cc1	10 µM [falling, partial curve]	
O=C(COc1ncnc2c1cnn2-c1ccccc1)Nc1ccc(S(=O)(=O)N2CCCCC2)cc1	1.03 µM [falling, full curve, poor fit]	23.1 µM [rising, partial curve, poor fit]
C=CC[C@H]1CC(C)=C[C@H](CC=C)N1	5.01 µM [rising, partial curve, poor fit]	
O=C1c2cccnc2C(=O)N1Cc1ccc(S(=O)(=O)N2CCOc3ccc(Cl)cc32)cc1	20 µM [falling, single point]	
CCOc1ccc(C2=Nn3c(nnc3-c3cccnc3)SC2)cc1	35.5 µM [falling, single point]	
CCOc1ccc(-c2noc(COC)n2)cc1OC	9.2 µM [rising, partial curve]	
COc1ccc(CCC(C)N(C)Cc2ccccc2)cc1 (stereo not drawn)	31.6 µM [rising, single point]	
Cc1onc(-c2ccccc2)c1NC(=O)Nc1ccc(OC(F)F)cc1	7.08 µM [rising, partial curve, poor fit]	
CN(C)c1ccc(NC(=O)/C=C/c2ccccc2Cl)cc1	4.11 µM [falling, partial curve]	
CC(=O)c1sc(N/N=C/c2cccc(O)c2)nc1C	3.98 µM [falling, full curve, poor fit]	
COC(=O)COc1cccc(NC(=O)c2cccc(C)c2)c1	0.0891 µM [falling, full curve, poor fit]	
O=C(c1ccccc1)c1n[nH]c(-c2ccccc2)cc1=O	10 µM [falling, partial curve]	
Fc1ccc(C2NCCn3cccc32)cc1 (stereo not drawn)	11.2 µM [falling, partial curve, poor fit]	
CC(OC(=O)c1cccc(S(=O)(=O)N2CCN(C)CC2)c1)C(=O)Nc1ccc(C(N)=O)cc1 (stereo not drawn)	29.1 µM [rising, partial curve, poor fit]	

SMILES	AC50 [1]	AC50 [2]
COc1ccc(Cn2c(C)c(C)c(C#N)c2NC(=O)Nc2ccc(Cl)cc2)cc1	35.5 µM [falling, single point]	35.5 µM [rising, partial curve, poor fit]
COc1cccc(Cn2cc(-c3cccc(C(F)(F)F)c3)nn2)c1	3.98 µM [rising, single point]	
COc1ccc(CN2CCC(C(=O)N(C)CCc3ccc(OC)c(OC)c3)CC2)c(OC)c1	2.31 µM [falling, partial curve, poor fit]	
O=C(NN=C1CCCCCC1)c1c[nH]c2ccccc12	9.2 µM [falling, partial curve, poor fit]	
COc1cnc(SCc2ccc(Cl)cc2)nc1Cl	4.47 µM [rising, partial curve, poor fit]	
O=C(Nc1ccccc1-c1ccccc1)c1cccc([N+](=O)[O-])c1	0.794 µM [rising, full curve, poor fit]	
O=C(N/N=C/c1cccc(Oc2ccccc2)c1)c1ccccc1Br	25.1 µM [falling, partial curve, poor fit]	
O=C(c1ccccc1NS(=O)(=O)c1ccccc1[N+](=O)[O-])N1CCOCC1	2.91 µM [rising, single point]	
O=C(NCC(O)c1ccccc1)c1ccc(Cl)c(S(=O)(=O)N2CCCC2)c1 (stereo not drawn)	13 µM [falling, partial curve]	
Cc1sc(NC(=O)c2ccccc2)c(C(=O)N2CCN(C)CC2)c1C	9.2 µM [rising, partial curve]	
C/C(=N\NC(=O)c1ccccc1)c1nc2ccccc2n1C	13 µM [falling, partial curve, poor fit]	
COc1ccc(-c2csc(-n3ncc(-c4cccs4)c3N)n2)cc1	8.91 µM [rising, single point]	
COc1ccc(-c2onc3ccc(Br)cc23)cc1	20.6 µM [rising, partial curve, poor fit]	
O=C(N/N=C/c1ccoc1)c1ccc(Cl)cc1	8.91 µM [falling, partial curve, poor fit]	
CCOC(=O)c1sc(Nc2nc(OC)cc(OC)n2)nc1C	3.98 µM [falling, full curve, poor fit]	
Cc1csc(N/N=C/c2ccc([N+](=O)[O-])cc2)n1	1.26 µM [rising, full curve, poor fit]	
Cc1ccc(C(=O)Nc2nccs2)cc1S(=O)(=O)N1CCCCC1	6.31 µM [falling, full curve]	
CCOc1ccc(C(=O)/C=C/c2ccc(OC)c(OC)c2)cc1	22.4 µM [falling, single point]	
COc1ccc(/C=N/Nc2snc(SC)c2C#N)cc1OC	5.62 µM [falling, partial curve, poor fit]	
O=C(c1cnn(-c2ccccc2)c1)c1ccc2ccccc2c1O	1.41 µM [falling, full curve, poor fit]	
COc1ccc(C(C)=O)c(OC(=O)c2ccco2)c1	2.82 µM [rising, single point]	
N#Cc1ccc(C(=O)Nc2cccc(NC(=O)c3ccco3)c2)c(F)c1	7.08 µM [falling, partial curve]	

SMILES	AC50 [1]	AC50 [2]
C/C(=N\NC(=O)Cc1ccc(F)cc1)c1ccc(F)cc1	4.61 µM [rising, full curve, poor fit]	
CCCCNC(=O)N1CCN(c2ccnc3cc(Cl)ccc23)CC1	25.1 µM [falling, single point]	
COc1ccccc1C(=O)CSc1nccn1C	14.1 µM [falling, single point]	
CN1CCN(C(=O)CCN2C(=O)/C(=C\c3ccc(F)cc3)SC2=S)CC1	23.1 µM [falling, single point]	
CCc1cc(SC#N)cc(C)c1N	3.55 µM [falling, single point]	20 µM [falling, partial curve, poor fit]
O=C(COC(=O)c1ccccc1C(=O)N1CCN(c2ccccc2)CC1)Nc1ccc(F)cc1	0.058 µM [falling, full curve, poor fit]	
CC(C)Oc1cccc(C(=O)NC(=S)Nc2ccccc2)c1	1.64 µM [rising, full curve, poor fit]	
Cc1nc2ccccc2c2oc(C(=O)NCCCN3CCC(C)CC3)cc12	14.1 µM [falling, single point]	
COc1cc(C(=O)NC(=S)N(C)Cc2ccccc2)cc(OC)c1OC		12.6 µM [falling, partial curve, poor fit]
O=S(=O)(NC1CCCCC1N1CCN(c2ccccc2F)CC1)c1ccc(Cl)cc1 (stereo not drawn)	5.62 µM [rising, single point]	
O=C(c1cc(F)ccc1F)C1CCCN(C(=O)c2ccc(F)cc2Cl)C1 (stereo not drawn)	0.708 µM [rising, full curve, poor fit]	
CC(=O)N/C(N)=N/c1nc2cc(C)ccc2o1	0.891 µM [rising, full curve, poor fit]	
O=C(c1ccco1)N1CCN(c2ncnc3c2cnn3-c2ccccc2)CC1	18.4 µM [falling, single point]	
Cc1nc2sc(C(=O)c3ccccc3)c(N)c2c2c1CCCC2	32.6 µM [falling, single point]	
CNS(=O)(=O)c1cccc(C(=O)OCC(=O)N2c3ccccc3NC(=O)C2(C)C)c1	23.1 µM [rising, single point]	
[2H]C([2H])(CCOS(N)(=O)=O)c1ccccc1	2.24 µM [rising, full curve, poor fit]	
NC(=O)c1ccccc1NC(=S)NC(=O)c1ccc(Br)o1	23.1 µM [falling, single point]	
Cc1ccc2nc(SCC(=O)Nc3cccc(Cl)c3)nc(=O)n2c1	29.1 µM [falling, single point]	
O=C(Nc1ccc2c(c1)OCCO2)NC1(C(F)(F)F)Oc2ccccc2O1	29.1 µM [falling, single point]	
CCn1cc(C(C)NC(=O)COc2ccc(Cl)cc2C)c(C)n1 (stereo not drawn)	29.1 µM [rising, single point]	
COc1ccccc1NC(=O)CN1C(=O)CSC(C)C1=O (stereo not drawn)	29.1 µM [falling, single point]	

Reformatted with each value named: 2 of the compounds above
O=C(N/N=C/c1cccc(Oc2ccccc2)c1)c1ccccc1Br
  AC50 [1]: 25.1 µM [falling, partial curve, poor fit]
O=C(c1ccccc1NS(=O)(=O)c1ccccc1[N+](=O)[O-])N1CCOCC1
  AC50 [1]: 2.91 µM [rising, single point]
